Patent US9526721B2, “Tetrahydroprotoberbine compounds and uses thereof in the treatment of neurological, psychiatric and neurodegenerative diseases” (priority 2012, dated 2016)

Test system: rats
Assay: Microdialysis of prefrontal cortex and nucleus accumbens;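 further: dialysate collected every 10 min from freely moving rats, analysed by HPLC with electrochemical detection, after four stable baseline samples (under 10% variation) preceding drug dosing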
Conditions: 1.0 mg/kg SC

## COc1cc2c(cc1O)CN1CCc3cc(OC)c(O)cc3C1C2 (racemic) [dl-govadine]
  time of DA peak after injection, NAc: 20 to 30 min
  time of DA peak after injection, PFC: ≤ 10 min
